# Results as given in PubChem BioAssay AID651640 (Broad Institute, 2012).
# Among all 350,000 compounds or so, about 6,000 (1.7%) were called active. Inconclusive results, whose numbers are uncertain, are shown with a selection of clear calls. Rule as the data show it: active = CPE inhibition above about 20% (passing the limit was not always enough); inconclusive = no clear call, values can overlap the other calls; tested in BHK-21 cells.
# Test: protection of cells from dengue 2 killing – plate reader, single concentration, primary screen (AID 651640);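 also: 0% = median of neutral control wells and 100% = median of positive control wells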
# Details: DENV2-infected cells, cytopathic effect rescue, at 9.99 µM, active compounds read high
row,SMILES,CPE inhibition
1,Cc1ccccc1OCC(=O)Nc1ccc(S(=O)(=O)N2CCCC2)cc1,inactive: -7.54%
2,COc1ccc(CN(C)C[C@@H]2Oc3ccc(NC(=O)Nc4ccccc4)cc3C(=O)N([C@H](C)CO)C[C@H]2C)cc1,inactive: -5.82%
3,C=CCOc1ccc(C(=O)n2cc(C(=O)OC)c3ccccc32)cc1,inconclusive: 22.6%
4,Cc1cccc(NC(=O)c2cc(C)nc3ccccc23)c1,inactive: -0.443%
5,Cc1ccc(C2(C)NC(=O)N(CC(=O)N3c4ccccc4NC(=O)CC3C)C2=O)cc1 (stereo unspecified),inconclusive: 39%
6,Clc1ccc(-c2ccc(CN3CCCCC3)o2)cc1,inconclusive: 31.2%
7,CC(=O)NCCNC(=O)C1Cc2c(-c3ccccc3Oc3ccccc3)ccnc2O1 (stereo unspecified),inconclusive: 48.6%
8,COc1ccc2c3c(n(C)c2c1)[C@@H](CO)N(C(=O)Nc1ccc(F)cc1)CC31CCN(C(=O)Cc2ccncc2)CC1,active: 40%
9,C[n+]1cccc(C(=O)Nc2ccccc2)c1,inconclusive: 24.1%
10,COCC(=O)Nc1ccc2c(c1)[C@H]1C[C@@H](CC(=O)O)O[C@@H](CO)[C@H]1O2,active: 42.6%
11,Oc1ccccc1C=NCC(O)c1ccccc1 (stereo unspecified),active: 76%
12,CCCCN(Cc1nc2ccccc2c(=O)[nH]1)C(=O)c1nn(C)c(=O)c2ccccc12,inactive: 5.92%
13,COc1ccc(COCC23N=C4SCc5ccccc5CN4[C@H](c4ccccc4O2)[C@H]3COC(=O)c2ccccc2)cc1,active: 31.6%
14,Cc1ccc(S(=O)(=O)N[C@@H]2C=C[C@@H](CC(=O)NCc3ccccc3F)O[C@@H]2CO)cc1,inconclusive: 21%
15,CO[C@@H]1CN(C)C(=O)c2ccc(NS(C)(=O)=O)cc2OC[C@H](C)NC[C@H]1C,inconclusive: 37.1%
16,COc1cc(NS(=O)(=O)c2ccc(N)cc2)nc(OC)n1,inactive: 8.52%
17,Cc1ccc(S(=O)(=O)N(C)C)cc1NC(=O)Nc1ccccc1,inconclusive: 40%
18,Fc1ccccc1NC(=S)Nn1cnnc1,active: 43.7%

# Part of the list above in order of SMILES length, smallest number first:
row,SMILES,CPE inhibition
9,C[n+]1cccc(C(=O)Nc2ccccc2)c1,inconclusive: 24.1%
7,CC(=O)NCCNC(=O)C1Cc2c(-c3ccccc3Oc3ccccc3)ccnc2O1 (stereo unspecified),inconclusive: 48.6%
14,Cc1ccc(S(=O)(=O)N[C@@H]2C=C[C@@H](CC(=O)NCc3ccccc3F)O[C@@H]2CO)cc1,inconclusive: 21%

# (further entries)

row,SMILES,CPE inhibition
1,COc1ccc(S(=O)(=O)Nc2ccc3c(c2)C(=O)N([C@@H](C)CO)C[C@@H](C)[C@H](CN(C)C(=O)CCCN(C)C)OCCCC[C@@H](C)O3)cc1,active: 31.5%
2,C[C@H](CO)N1C[C@H](C)[C@@H](CN(C)S(=O)(=O)c2ccc(F)cc2)Oc2c(NC(=O)NC3CCCCC3)cccc2C1=O,inconclusive: 38.2%
3,COc1ccc(C2CC(=O)C(c3ccc(Cl)c(Cl)c3)=CN2Cc2ccccc2)cc1 (stereo unspecified),inconclusive: 63.4%
4,COc1cc(-c2cc[n+](C)cc2)ccc1O,inconclusive: 20.9%
5,CC1CN(N=Cc2ccc([N+](=O)[O-])o2)C(=N)O1 (stereo unspecified),inconclusive: 53.8%
6,C[C@@H]1CN([C@@H](C)CO)C(=O)Cc2cc(NC(=O)CCCCCC(=O)Nc3ccccc3N)ccc2O[C@@H]1CN(C)Cc1ccc(C(F)(F)F)cc1,active: 95.7%
7,CCC(=O)Nc1ccc2c(c1)C(=O)N(C)C[C@@H](OC)[C@@H](C)CN(C(=O)c1cnccn1)[C@@H](C)CO2,active: 29.3%
8,CO[C@@H]1CN(C)C(=O)c2ccc(NS(=O)(=O)CC(F)(F)F)cc2OC[C@H](C)N(Cc2cccnc2)C[C@H]1C,inactive: -4.05%
9,COc1ccc(S(=O)(=O)N(C)C[C@@H]2Oc3cc(C#CC4CCCCC4)ccc3S(=O)(=O)N([C@H](C)CO)C[C@@H]2C)cc1,inconclusive: 25.6%
10,CC(C)=C[C@H]1C[C@H](C)[C@H]2CC[C@H](C)c3c(O[C@@H]4O[C@@H](C)[C@@H](O)[C@@H](O)[C@@H]4O)c(O)c(C)c1c32,inconclusive: 39.7%
11,CCCS(=O)(=O)NC(=O)C1(C)CCN(C(=O)c2nc(C)oc2C)C1 (stereo unspecified),inconclusive: 33.3%
12,CC1(C(=O)NCc2cccc(C(F)(F)F)c2)CCN1C1Cc2ccccc2C1 (stereo unspecified),inconclusive: 33.1%
13,O=C1NC[C@H](CCCCN2CCN(CCc3ccc(O)cc3)C(=O)C2=O)N(CCC2CCCCC2)C1=O,inconclusive: 30.3%
14,Cc1cc(C)c2nc3sc(=Cc4ccc(-c5ccccc5C(=O)O)o4)c(=O)n3c2c1,inconclusive: 32.7%
15,Cc1ccc(S(=O)(=O)Nc2ccc3c(c2)C(=O)N([C@@H](C)CO)C[C@H](C)[C@@H](CN(C)C(=O)Nc2c(C)noc2C)OCCCC[C@@H](C)O3)cc1,inactive: -10.8%
16,CCC(=O)N1C[C@H](C)[C@H](OC)CN(C)C(=O)c2cc(NC(=O)c3cnccn3)ccc2OC[C@H]1C,active: 24.5%
17,c1ccc(-c2n[nH]c(-c3ccccn3)n2)nc1,inconclusive: 27.8%
18,CCC(=O)N1[C@@H]2CN(C(=O)c3ccncc3)c3ccccc3[C@@H]2[C@@H]1CO,inconclusive: 23.9%
